Publication PMC7554302, “The Reversible Non-covalent Aggregation Into Fibers of PGLa and Magainin 2 Preserves Their Antimicrobial Activity and Synergism” (Frontiers in Cellular and Infection Microbiology, 2020)
These are yes or no findings as the source states them, for the method shown. Some binding calls cover weakened binding; strength is not graded here.

Columns and labels:
[1] = molecular target: magainin 2a (Xenopus laevis); experiment: condition: only in Tris, HEPES or acetate buffer or pure water, without phosphate (0.5 mM peptide); co-sedimentation; 0.5 mM peptide shaken 1 day in tubes in 50 mM Tris, HEPES or acetate buffer or pure water (no phosphate); 13,000 rpm 30 min; peptide left in the supernatant quantified by HPLC; both purified
PGLa (Xenopus laevis) [2] = experiment: co-sedimentation; 0.5 mM peptide shaken 1 day in tubes in 50 mM sodium phosphate pH 7.4 (with or without 150 mM NaCl; PGLa also in ammonium bicarbonate pH 7.4); 13,000 rpm 30 min; peptide left in the supernatant quantified by HPLC; both purified
PGLa (Xenopus laevis) [3] = experiment: transmission electron microscopy + FTIR; negative-stain TEM of the samples fibrillated in Mueller-Hinton medium; FTIR of fibril pellets prepared in 50 mM phosphate buffer pH 7.4; both purified
PGLa (Xenopus laevis) [4] = experiment: thioflavin T fluorescence (fibrillation kinetics); 0.5 mM peptide in Mueller-Hinton medium with 40 uM ThT, 96-well half area plates, 37°C, 300 rpm orbital shaking; for PGLa also phosphate buffers pH 6.5 to 8.5; both purified

Binder	binding [1]	binding (PGLa (Xenopus laevis) [2])	binding (PGLa (Xenopus laevis) [3])	binding (PGLa (Xenopus laevis) [4])
GIGKFLHSAKKFGKAFVGEIMNS (C-terminal amide) [magainin 2a]	no binding			
GMASKAGAIAGKIAKVALKAL (C-terminal amide) [PGLa]		binds	binds	binds
